The list shows a part of the results.
Legend:
Test in all cases: log2 fold change, soluble protein after heating vs DMSO (PISA); higher = thermal stabilisation; K562 lysate, 10 uM; active = over 0.2 and 3.5 SD of the protein, either way, in both replicates (recomputed)
vemurafenib = compound: CCCS(=O)(=O)Nc1ccc(F)c(C(=O)c2c[nH]c3ncc(-c4ccc(Cl)cc4)cc23)c1F [vemurafenib]
Method in brief: (§1)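 Quantification was by TMTpro 16plex LC-MS/MS with equalised channel sums, applied to the supernatant after 21,000xg for 90 min. Samples were crude K562 extract at 1 mg/mL protein in PBS pH 7.4 with 1 mM MgCl2, treated with 10 μM compound for 30 min, heated for 3 min across 48°C-58°C, pooled and brought to 0.5% NP-40 at 4°C. Values are log-two fold changes in thermal stability relative to solvent controls, from duplicates.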

The chains behind the UniProt entries cited, without tags or fusion partners. Where a name states a change or a piece, a line headed by the entry shows the natural chain unless it says otherwise.
UniProt P17029: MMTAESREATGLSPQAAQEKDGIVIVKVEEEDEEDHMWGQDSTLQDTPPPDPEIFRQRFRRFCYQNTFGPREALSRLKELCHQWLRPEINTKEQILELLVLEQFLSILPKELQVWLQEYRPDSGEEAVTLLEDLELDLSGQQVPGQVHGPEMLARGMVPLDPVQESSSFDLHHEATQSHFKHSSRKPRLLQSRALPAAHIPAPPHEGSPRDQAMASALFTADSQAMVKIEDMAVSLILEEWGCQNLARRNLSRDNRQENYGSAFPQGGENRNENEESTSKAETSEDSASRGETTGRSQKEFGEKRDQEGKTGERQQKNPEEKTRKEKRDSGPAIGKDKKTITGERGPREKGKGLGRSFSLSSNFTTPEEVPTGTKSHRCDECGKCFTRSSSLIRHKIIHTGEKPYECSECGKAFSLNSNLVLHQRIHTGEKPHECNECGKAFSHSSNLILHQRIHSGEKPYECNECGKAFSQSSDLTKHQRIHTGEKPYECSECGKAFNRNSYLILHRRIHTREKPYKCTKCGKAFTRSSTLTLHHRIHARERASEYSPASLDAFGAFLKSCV
UniProt Q9P2E3: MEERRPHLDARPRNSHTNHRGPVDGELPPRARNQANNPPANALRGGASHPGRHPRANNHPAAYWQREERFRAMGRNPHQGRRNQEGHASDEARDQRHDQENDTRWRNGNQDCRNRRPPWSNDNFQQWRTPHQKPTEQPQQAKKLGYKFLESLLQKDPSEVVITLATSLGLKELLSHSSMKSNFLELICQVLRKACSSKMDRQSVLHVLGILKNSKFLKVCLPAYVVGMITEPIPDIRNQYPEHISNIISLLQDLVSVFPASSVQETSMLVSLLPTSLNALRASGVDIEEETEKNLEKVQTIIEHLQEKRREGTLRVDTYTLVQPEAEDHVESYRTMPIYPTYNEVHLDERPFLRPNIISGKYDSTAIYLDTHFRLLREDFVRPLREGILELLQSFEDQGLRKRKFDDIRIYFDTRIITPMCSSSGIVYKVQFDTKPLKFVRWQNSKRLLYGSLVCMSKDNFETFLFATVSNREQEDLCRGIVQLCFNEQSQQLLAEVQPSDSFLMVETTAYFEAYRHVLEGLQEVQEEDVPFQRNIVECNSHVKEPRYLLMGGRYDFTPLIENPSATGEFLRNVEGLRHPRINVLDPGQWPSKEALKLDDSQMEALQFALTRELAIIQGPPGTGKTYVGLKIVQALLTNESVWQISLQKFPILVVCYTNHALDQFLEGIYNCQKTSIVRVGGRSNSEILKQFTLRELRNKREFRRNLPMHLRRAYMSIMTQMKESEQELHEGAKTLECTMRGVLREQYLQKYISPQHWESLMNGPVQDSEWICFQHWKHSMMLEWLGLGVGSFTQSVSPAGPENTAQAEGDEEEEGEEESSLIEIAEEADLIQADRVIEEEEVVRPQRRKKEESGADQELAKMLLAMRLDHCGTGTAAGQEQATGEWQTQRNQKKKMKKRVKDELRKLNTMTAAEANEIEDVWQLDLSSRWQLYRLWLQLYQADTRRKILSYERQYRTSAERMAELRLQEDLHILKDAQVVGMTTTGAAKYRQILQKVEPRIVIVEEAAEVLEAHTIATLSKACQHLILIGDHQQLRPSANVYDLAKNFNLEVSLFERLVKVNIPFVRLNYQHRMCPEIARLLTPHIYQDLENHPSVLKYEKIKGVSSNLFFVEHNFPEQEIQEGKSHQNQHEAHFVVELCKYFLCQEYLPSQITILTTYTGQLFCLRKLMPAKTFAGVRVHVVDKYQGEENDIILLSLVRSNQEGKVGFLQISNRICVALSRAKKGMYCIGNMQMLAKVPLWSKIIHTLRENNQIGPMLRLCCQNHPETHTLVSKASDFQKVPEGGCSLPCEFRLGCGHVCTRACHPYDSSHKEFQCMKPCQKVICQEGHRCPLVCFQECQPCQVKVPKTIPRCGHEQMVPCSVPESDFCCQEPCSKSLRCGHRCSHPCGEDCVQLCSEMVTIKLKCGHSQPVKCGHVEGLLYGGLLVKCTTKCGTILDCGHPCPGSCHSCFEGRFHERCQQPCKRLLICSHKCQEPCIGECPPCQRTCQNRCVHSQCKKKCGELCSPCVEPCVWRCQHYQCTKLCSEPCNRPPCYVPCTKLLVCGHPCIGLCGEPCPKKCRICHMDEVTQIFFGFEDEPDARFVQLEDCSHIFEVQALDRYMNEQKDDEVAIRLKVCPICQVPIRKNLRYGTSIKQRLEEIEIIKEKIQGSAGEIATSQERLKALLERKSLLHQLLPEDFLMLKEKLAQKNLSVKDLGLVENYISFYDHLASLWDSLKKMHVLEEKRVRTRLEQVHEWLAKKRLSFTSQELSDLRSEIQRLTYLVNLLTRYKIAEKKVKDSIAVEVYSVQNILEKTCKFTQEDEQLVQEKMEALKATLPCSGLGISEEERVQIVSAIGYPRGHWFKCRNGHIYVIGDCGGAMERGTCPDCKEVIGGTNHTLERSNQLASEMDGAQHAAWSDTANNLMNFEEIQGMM
UniProt P52747: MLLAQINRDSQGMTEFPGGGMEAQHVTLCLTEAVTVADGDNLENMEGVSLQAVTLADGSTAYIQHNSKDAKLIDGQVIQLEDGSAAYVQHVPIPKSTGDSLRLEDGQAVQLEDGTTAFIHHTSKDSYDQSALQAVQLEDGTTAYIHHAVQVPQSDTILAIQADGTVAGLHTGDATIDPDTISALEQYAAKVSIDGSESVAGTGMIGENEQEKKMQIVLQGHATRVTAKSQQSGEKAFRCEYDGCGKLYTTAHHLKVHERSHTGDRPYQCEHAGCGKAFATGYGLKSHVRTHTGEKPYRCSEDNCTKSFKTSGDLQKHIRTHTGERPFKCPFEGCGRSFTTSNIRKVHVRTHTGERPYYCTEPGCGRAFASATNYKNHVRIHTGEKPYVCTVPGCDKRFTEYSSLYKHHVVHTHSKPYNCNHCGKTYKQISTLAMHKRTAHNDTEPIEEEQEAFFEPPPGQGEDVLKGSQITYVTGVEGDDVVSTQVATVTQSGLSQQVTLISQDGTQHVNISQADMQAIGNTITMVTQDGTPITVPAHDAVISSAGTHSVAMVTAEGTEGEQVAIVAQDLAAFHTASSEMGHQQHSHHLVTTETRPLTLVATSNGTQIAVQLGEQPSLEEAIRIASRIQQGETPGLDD
UniProt O75362: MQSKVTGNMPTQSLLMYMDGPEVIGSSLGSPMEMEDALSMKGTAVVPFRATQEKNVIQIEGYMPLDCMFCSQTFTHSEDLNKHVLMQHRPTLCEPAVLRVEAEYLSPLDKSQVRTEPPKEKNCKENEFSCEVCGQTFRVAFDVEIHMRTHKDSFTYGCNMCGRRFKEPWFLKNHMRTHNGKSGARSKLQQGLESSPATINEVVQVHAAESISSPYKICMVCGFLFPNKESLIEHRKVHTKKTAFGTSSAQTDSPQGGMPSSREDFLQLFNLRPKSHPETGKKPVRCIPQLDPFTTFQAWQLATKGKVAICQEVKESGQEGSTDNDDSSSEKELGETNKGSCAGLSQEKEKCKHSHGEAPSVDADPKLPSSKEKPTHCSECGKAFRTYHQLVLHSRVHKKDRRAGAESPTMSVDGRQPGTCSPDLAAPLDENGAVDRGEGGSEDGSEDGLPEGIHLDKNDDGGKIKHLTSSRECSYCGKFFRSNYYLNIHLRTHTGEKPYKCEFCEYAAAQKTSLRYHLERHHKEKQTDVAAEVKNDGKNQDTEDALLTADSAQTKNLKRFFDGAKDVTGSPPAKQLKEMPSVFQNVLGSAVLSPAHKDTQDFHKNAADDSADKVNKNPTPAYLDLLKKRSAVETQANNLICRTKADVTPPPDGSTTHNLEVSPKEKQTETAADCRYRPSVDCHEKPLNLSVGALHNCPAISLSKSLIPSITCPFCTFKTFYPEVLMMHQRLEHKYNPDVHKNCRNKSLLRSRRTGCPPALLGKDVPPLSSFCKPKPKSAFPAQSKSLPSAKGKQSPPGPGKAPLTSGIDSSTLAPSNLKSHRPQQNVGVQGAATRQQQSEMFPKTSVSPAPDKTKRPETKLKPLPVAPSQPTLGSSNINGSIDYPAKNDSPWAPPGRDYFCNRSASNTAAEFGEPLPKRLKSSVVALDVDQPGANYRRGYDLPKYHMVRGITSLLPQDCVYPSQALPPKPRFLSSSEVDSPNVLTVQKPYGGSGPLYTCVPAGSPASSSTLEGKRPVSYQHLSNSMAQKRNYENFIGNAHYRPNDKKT
UniProt O43670: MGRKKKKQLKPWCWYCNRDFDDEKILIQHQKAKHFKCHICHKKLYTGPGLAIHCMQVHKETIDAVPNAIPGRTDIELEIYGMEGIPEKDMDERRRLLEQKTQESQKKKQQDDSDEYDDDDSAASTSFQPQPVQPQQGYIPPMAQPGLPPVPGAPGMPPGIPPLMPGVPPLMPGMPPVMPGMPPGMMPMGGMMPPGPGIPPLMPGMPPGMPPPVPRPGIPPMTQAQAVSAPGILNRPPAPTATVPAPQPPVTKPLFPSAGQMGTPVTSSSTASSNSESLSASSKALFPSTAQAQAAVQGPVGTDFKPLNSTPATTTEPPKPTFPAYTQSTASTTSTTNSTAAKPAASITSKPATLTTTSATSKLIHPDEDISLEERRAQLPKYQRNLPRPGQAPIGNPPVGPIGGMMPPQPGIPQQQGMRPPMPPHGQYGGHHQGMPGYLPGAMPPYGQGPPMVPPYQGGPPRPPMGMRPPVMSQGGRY
UniProt Q9Y3S2: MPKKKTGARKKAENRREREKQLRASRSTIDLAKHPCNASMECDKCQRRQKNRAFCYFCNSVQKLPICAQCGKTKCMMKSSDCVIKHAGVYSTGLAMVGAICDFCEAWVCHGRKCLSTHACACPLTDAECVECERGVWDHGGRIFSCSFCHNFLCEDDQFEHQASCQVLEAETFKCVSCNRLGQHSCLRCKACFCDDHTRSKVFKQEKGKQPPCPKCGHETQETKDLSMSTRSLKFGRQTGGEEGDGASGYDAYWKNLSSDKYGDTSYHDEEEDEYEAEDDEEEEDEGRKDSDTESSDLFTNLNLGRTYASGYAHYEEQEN
UniProt O60232: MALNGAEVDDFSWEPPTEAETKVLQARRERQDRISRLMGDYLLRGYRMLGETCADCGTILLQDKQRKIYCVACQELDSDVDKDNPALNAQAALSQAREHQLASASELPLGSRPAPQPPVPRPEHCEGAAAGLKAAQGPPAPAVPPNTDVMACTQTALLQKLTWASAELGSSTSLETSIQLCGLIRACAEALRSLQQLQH
UniProt O75312: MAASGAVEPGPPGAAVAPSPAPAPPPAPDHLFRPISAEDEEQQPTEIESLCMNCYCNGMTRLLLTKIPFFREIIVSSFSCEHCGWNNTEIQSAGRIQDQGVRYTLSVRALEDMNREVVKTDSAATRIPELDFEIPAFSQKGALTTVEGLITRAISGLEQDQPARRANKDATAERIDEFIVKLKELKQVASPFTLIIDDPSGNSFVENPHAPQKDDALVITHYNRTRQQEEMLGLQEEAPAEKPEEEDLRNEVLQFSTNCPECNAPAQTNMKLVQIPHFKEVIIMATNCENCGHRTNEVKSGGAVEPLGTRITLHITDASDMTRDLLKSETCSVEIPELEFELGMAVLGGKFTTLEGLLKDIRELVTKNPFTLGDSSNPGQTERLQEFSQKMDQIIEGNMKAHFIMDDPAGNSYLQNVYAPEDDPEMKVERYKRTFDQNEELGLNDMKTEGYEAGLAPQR
UniProt Q499Z4: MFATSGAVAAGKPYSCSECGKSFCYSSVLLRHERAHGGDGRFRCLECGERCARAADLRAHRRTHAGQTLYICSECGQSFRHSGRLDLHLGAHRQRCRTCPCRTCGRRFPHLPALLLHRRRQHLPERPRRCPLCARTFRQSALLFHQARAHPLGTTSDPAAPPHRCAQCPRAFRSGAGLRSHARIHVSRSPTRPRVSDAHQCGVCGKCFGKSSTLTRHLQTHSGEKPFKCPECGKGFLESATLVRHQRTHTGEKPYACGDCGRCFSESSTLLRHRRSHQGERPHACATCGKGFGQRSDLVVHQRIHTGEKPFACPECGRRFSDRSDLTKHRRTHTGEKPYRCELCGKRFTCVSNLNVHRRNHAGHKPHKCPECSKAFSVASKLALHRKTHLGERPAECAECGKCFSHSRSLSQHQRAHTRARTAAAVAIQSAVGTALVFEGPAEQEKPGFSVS
UniProt Q96NB3: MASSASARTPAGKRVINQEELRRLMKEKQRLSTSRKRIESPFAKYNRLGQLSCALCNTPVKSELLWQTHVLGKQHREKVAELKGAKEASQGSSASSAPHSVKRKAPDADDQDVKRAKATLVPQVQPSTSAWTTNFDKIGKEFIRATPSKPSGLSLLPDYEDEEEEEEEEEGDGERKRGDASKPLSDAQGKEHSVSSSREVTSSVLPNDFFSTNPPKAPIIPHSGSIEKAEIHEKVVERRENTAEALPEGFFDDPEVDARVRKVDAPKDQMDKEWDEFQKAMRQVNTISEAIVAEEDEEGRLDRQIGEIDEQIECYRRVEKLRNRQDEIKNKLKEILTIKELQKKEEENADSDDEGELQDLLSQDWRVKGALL

[1] = compound: CCCS(=O)(=O)Nc1ccc(F)c(C(=O)c2c[nH]c3ncc(Cl)cc23)c1F
Method in brief: as §1

barasertib = compound: CCN(CCCOc1ccc2c(Nc3cc(CC(=O)Nc4cccc(F)c4)[nH]n3)ncnc2c1)CCOP(=O)(O)O [barasertib]
Method in brief: as §1

[2] = compound: CC[C@@H]1C(=O)N(C)c2cnc(Nc3ccc(C(=O)NC4CCN(C)CC4)cc3OC)nc2N1C1CCCC1
Method in brief: as §1

volasertib = compound: CC[C@@H]1C(=O)N(C)c2cnc(Nc3ccc(C(=O)N[C@H]4CC[C@H](N5CCN(CC6CC6)CC5)CC4)cc3OC)nc2N1C(C)C [volasertib]
Method in brief: as §1

[3] = compound: CCn1c(C(=O)N(C2CC2)C2CC2)cc2c3c(ncn3C)c(Nc3cc(C)n(C)n3)nc21
Method in brief: as §1

[4] = compound: CCn1cc(-c2ccnc3[nH]c(-c4cccc(CN(C)C)c4)cc23)c(-c2ccc(NC(=O)N(C)C)cc2)n1
Method in brief: as §1

[5] = compound: CN1CCC(CNc2ccc3ncc(-c4cccc(OC(F)(F)F)c4)n3n2)CC1
Method in brief: as §1

saracatinib = compound: CN1CCN(CCOc2cc(OC3CCOCC3)c3c(Nc4c(Cl)ccc5c4OCO5)ncnc3c2)CC1 [saracatinib]
Method in brief: as §1

sotrastaurin = compound: CN1CCN(c2nc(C3=C(c4c[nH]c5ccccc45)C(=O)NC3=O)c3ccccc3n2)CC1 [sotrastaurin]
Method in brief: as §1

alvocidib = compound: CN1CC[C@H](c2c(O)cc(O)c3c(=O)cc(-c4ccccc4Cl)oc23)[C@H](O)C1 [alvocidib]
Method in brief: as §1

Tubastatin A = compound: CN1CCc2c(c3ccccc3n2Cc2ccc(C(=O)NO)cc2)C1 [Tubastatin A]
Method in brief: as §1

[6] = compound: CNC(=O)C1=CC=CC=C1NC2=NC(=NC=C2Cl)NC3=C(C=C(C=C3)N4CCOCC4)OC
Method in brief: as §1

defactinib = compound: CNC(=O)c1ccc(Nc2ncc(C(F)(F)F)c(NCc3nccnc3N(C)S(C)(=O)=O)n2)cc1 [defactinib]
Method in brief: as §1

[7] = compound: CNc1nc(-c2ccc3c(N)n[nH]c3c2)cc(N2C[C@@H](C(=O)NC3CCCCC3)CC[C@H]2C)n1
Method in brief: as §1

encorafenib = compound: COC(=O)N[C@@H](C)CNc1nccc(-c2cn(C(C)C)nc2-c2cc(Cl)cc(NS(C)(=O)=O)c2F)n1 [encorafenib]
Method in brief: as §1

[8] = compound: COC(=O)[C@H](CCSC)NC(=O)C1=C(C=C(C=C1)NC[C@H](CS)N)C2=CC=CC=C2
Method in brief: as §1

alisertib = compound: COc1cc(Nc2ncc3c(n2)-c2ccc(Cl)cc2C(c2c(F)cccc2OC)=NC3)ccc1C(=O)O [alisertib]
Method in brief: as §1

[9] = compound: COc1cc2nc(-c3cc(F)ccc3O)nc(N[C@@H]3CNC[C@H]3C(C)(C)O)c2cc1OC
Method in brief: as §1

gefitinib = compound: COc1cc2ncnc(Nc3ccc(F)c(Cl)c3)c2cc1OCCCN1CCOCC1 [gefitinib]
Method in brief: as §1

Measured: log2 fold change

ZKSCAN1 (UniProt P17029)
inactive: vemurafenib 0.002 | [1] 0.028 | barasertib 0.039 | [2] 0.055 | volasertib -0.041 | [3] 0.019 | [4] 0.019 | [5] -0.077 | saracatinib -0.017 | sotrastaurin -0.099 | alvocidib 0.022 | Tubastatin A -0.065 | [6] 0.011 | defactinib 0.014 | [7] 0.021 | encorafenib 0.113 | [8] -0.044 | alisertib 0.107 | [9] -0.011 | gefitinib -0.235

ZNFX1 (UniProt Q9P2E3)
inactive: vemurafenib 0.067 | [1] 0.073 | barasertib -0.084 | [2] -0.184 | volasertib -0.032 | [3] 0.032 | [4] 0.052 | [5] 0.012 | saracatinib -0.076 | sotrastaurin -0.064 | alvocidib -0.053 | Tubastatin A -0.071 | [6] -0.025 | defactinib -0.057 | [7] -0.112 | encorafenib -0.109 | [8] -0.055 | alisertib 0.002 | [9] -0.022 | gefitinib -0.016

ZNF143 (UniProt P52747)
inactive: vemurafenib 0.083 | [1] 0.033 | barasertib -0.069 | [2] 0.084 | volasertib -0.022 | [3] -0.049 | [4] -0.017 | [5] -0.035 | saracatinib -0.067 | sotrastaurin -0.02 | alvocidib 0.007 | Tubastatin A 0.037 | [6] -0.039 | defactinib 0.011 | [7] 0.004 | encorafenib 0.041 | [8] 0.009 | alisertib -0.023 | [9] -0.016 | gefitinib 0.035

ZNF318 (UniProt Q5VUA4)
inactive: vemurafenib 0.089 | [1] 0.025 | barasertib 0.077 | [2] 0.025 | volasertib 0.011 | [3] -0.007 | [4] 0.086 | [5] -0.033 | saracatinib 0.079 | sotrastaurin 0.047 | alvocidib 0.033 | Tubastatin A -0.177 | [6] 0.034 | defactinib -0.055 | [7] -0.002 | encorafenib 0.03 | [8] 0.117 | alisertib 0.03 | [9] 0.142 | gefitinib 0.025

Reprinted from the results shown (2 entries):
ZNFX1 (UniProt Q9P2E3)
inactive: vemurafenib 0.067 | [1] 0.073 | barasertib -0.084 | [2] -0.184 | volasertib -0.032 | [3] 0.032 | [4] 0.052 | [5] 0.012 | saracatinib -0.076 | sotrastaurin -0.064 | alvocidib -0.053 | Tubastatin A -0.071 | [6] -0.025 | defactinib -0.057 | [7] -0.112 | encorafenib -0.109 | [8] -0.055 | alisertib 0.002 | [9] -0.022 | gefitinib -0.016

ZNF143 (UniProt P52747)
inactive: vemurafenib 0.083 | [1] 0.033 | barasertib -0.069 | [2] 0.084 | volasertib -0.022 | [3] -0.049 | [4] -0.017 | [5] -0.035 | saracatinib -0.067 | sotrastaurin -0.02 | alvocidib 0.007 | Tubastatin A 0.037 | [6] -0.039 | defactinib 0.011 | [7] 0.004 | encorafenib 0.041 | [8] 0.009 | alisertib -0.023 | [9] -0.016 | gefitinib 0.035

Continuation.

ZNF217 (UniProt O75362)
inactive: vemurafenib 0.043 | [1] 0.019 | barasertib 0.047 | [2] 0.099 | volasertib -0.021 | [3] -0.028 | [4] -0.021 | [5] 0.076 | saracatinib 0.013 | sotrastaurin 0.052 | alvocidib -0.144 | Tubastatin A -0.076 | [6] 0.009 | defactinib -0.045 | [7] -0.004 | encorafenib -0.06 | [8] -0.037 | alisertib 0.032 | [9] 0.219 | gefitinib -0.013

ZNF207 isoform 4 (UniProt O43670)
inactive: vemurafenib 0.057 | [1] -0.026 | barasertib -0.029 | [2] 0.118 | volasertib 0.026 | [3] -0.059 | [4] -0.029 | [5] 0.018 | saracatinib -0.002 | sotrastaurin 0.026 | alvocidib -0.031 | Tubastatin A 0.041 | [6] -0.001 | defactinib -0.015 | [7] 0.038 | encorafenib -0.032 | [8] -0.044 | alisertib -0.01 | [9] 0.015 | gefitinib -0.067

ZNF330 (UniProt Q9Y3S2)
inactive: vemurafenib -0.035 | [1] 0.042 | barasertib 0.008 | [2] 0.012 | volasertib 0.016 | [3] -0.027 | [4] 0.106 | [5] 0.076 | saracatinib -0.069 | sotrastaurin -0.231 | alvocidib -0.044 | Tubastatin A 0.081 | [6] -0.042 | defactinib -0.03 | [7] 0.053 | encorafenib -0.005 | [8] -0.029 | alisertib -0.019 | [9] -0.01 | gefitinib -0.137

ZNHIT2 (UniProt Q9UHR6)
inactive: vemurafenib 0.126 | [1] 0.041 | barasertib 0.204 | [2] -0.044 | volasertib -0.133 | [3] 0.056 | [4] -0.075 | [5] 0.016 | saracatinib 0.061 | sotrastaurin -0.041 | alvocidib -0.002 | Tubastatin A -0.108 | [6] -0.067 | defactinib -0.019 | [7] -0.039 | encorafenib 0.02 | [8] 0.067 | alisertib 0.051 | [9] 0.171 | gefitinib 0.147

ZNRD2 (UniProt G3V1B8)
inactive: vemurafenib -0.095 | [1] 0.048 | barasertib 0.069 | [2] -0.115 | volasertib 0.137 | [3] -0.056 | [4] -0.25 | [5] -0.012 | saracatinib 0.059 | sotrastaurin -0.051 | alvocidib 0.035 | Tubastatin A 0.112 | [6] 0.057 | defactinib 0.123 | [7] 0.171 | encorafenib 0.15 | [8] -0.041 | alisertib -0.002 | [9] -0.067 | gefitinib -0.176

ZNRD2 (UniProt O60232)
inactive: vemurafenib -0.039 | [1] -0.015 | barasertib 0.058 | [2] -0.055 | volasertib 0.077 | [3] 0.051 | [4] -0.081 | [5] -0.014 | saracatinib 0.027 | sotrastaurin -0.024 | alvocidib 0.055 | Tubastatin A 0.092 | [6] 0.072 | defactinib 0.165 | [7] -0.069 | encorafenib 0.051 | [8] -0.067 | alisertib 0.011 | [9] -0.007 | gefitinib -0.15

ZPR1 (UniProt O75312)
inactive: vemurafenib -0.004 | [1] -0.008 | barasertib 0.013 | [2] 0.012 | volasertib 0.025 | [3] 0.007 | [4] -0.009 | [5] 0.041 | saracatinib -0.016 | sotrastaurin -0.012 | alvocidib -0.004 | Tubastatin A 0.036 | [6] -0.019 | defactinib -0.023 | [7] -0.006 | encorafenib -0.023 | [8] -0.018 | alisertib 0.009 | [9] 0.004 | gefitinib 0.013

ZWINT (UniProt O95229)
inactive: vemurafenib 0.013 | [1] 0.032 | barasertib 0.024 | [2] 0.041 | volasertib -0.012 | [3] -0.018 | [4] -0.005 | [5] 0.048 | saracatinib 0.013 | sotrastaurin 0.028 | alvocidib -0.002 | Tubastatin A 0.06 | [6] 0.019 | defactinib -0.025 | [7] 0.058 | encorafenib 0.023 | [8] -0.08 | alisertib 0.014 | [9] 0.022 | gefitinib 0.001

hCG_1984214 (UniProt I3L0E3)
inactive: vemurafenib 0.089 | [1] 0.032 | barasertib -0.02 | [2] 0.033 | volasertib 0.003 | [3] 0.015 | [4] -0.15 | [5] 0.052 | saracatinib 0.017 | sotrastaurin 0.022 | alvocidib 0.022 | Tubastatin A -0.061 | [6] 0.105 | defactinib -0.043 | [7] 0.024 | encorafenib -0.018 | [8] -0.017 | alisertib -0.082 | [9] 0.008 | gefitinib -0.026

ZNF787 (UniProt Q6DD87)
inactive: vemurafenib 0.266 | [1] 0.084 | barasertib -0.156 | [2] -0.063 | volasertib -0.018 | [3] -0.04 | [4] -0.02 | [5] 0.044 | saracatinib 0.073 | sotrastaurin -0.107 | alvocidib -0.037 | Tubastatin A 0.086 | [6] -0.038 | defactinib -0.058 | [7] 0.128 | encorafenib 0.076 | [8] -0.013 | alisertib -0.038 | [9] 0.014 | gefitinib -0.119

ZNF672 (UniProt Q499Z4)
inactive: vemurafenib 0.139 | [1] 0.05 | barasertib 0.004 | [2] 0.056 | volasertib 0.003 | [3] -0.006 | [4] 0.012 | [5] -0.248 | saracatinib 0.096 | sotrastaurin 0.024 | alvocidib 0.1 | Tubastatin A 0.007 | [6] 0.057 | defactinib -0.07 | [7] -0.083 | encorafenib -0.048 | [8] 0.148 | alisertib -0.024 | [9] -0.021 | gefitinib 0.008

ZNF830 (UniProt Q96NB3)
inactive: vemurafenib 0.038 | [1] 0.007 | barasertib 0.009 | [2] 0.094 | volasertib 0.001 | [3] -0.023 | [4] 0.042 | [5] 0.004 | saracatinib 0.07 | sotrastaurin 0.007 | alvocidib -0.012 | Tubastatin A 0.071 | [6] 0.039 | defactinib 0.047 | [7] 0.046 | encorafenib 0.008 | [8] -0.04 | alisertib -0.063 | [9] -0.013 | gefitinib -0.017

— the supplement of paper PMC10849652
